## Primary screen of a compound library

Chains of the proteins cited; added tags and fusions are not shown. Residues count along the entry.
UniProt I6X8D2, whole entry: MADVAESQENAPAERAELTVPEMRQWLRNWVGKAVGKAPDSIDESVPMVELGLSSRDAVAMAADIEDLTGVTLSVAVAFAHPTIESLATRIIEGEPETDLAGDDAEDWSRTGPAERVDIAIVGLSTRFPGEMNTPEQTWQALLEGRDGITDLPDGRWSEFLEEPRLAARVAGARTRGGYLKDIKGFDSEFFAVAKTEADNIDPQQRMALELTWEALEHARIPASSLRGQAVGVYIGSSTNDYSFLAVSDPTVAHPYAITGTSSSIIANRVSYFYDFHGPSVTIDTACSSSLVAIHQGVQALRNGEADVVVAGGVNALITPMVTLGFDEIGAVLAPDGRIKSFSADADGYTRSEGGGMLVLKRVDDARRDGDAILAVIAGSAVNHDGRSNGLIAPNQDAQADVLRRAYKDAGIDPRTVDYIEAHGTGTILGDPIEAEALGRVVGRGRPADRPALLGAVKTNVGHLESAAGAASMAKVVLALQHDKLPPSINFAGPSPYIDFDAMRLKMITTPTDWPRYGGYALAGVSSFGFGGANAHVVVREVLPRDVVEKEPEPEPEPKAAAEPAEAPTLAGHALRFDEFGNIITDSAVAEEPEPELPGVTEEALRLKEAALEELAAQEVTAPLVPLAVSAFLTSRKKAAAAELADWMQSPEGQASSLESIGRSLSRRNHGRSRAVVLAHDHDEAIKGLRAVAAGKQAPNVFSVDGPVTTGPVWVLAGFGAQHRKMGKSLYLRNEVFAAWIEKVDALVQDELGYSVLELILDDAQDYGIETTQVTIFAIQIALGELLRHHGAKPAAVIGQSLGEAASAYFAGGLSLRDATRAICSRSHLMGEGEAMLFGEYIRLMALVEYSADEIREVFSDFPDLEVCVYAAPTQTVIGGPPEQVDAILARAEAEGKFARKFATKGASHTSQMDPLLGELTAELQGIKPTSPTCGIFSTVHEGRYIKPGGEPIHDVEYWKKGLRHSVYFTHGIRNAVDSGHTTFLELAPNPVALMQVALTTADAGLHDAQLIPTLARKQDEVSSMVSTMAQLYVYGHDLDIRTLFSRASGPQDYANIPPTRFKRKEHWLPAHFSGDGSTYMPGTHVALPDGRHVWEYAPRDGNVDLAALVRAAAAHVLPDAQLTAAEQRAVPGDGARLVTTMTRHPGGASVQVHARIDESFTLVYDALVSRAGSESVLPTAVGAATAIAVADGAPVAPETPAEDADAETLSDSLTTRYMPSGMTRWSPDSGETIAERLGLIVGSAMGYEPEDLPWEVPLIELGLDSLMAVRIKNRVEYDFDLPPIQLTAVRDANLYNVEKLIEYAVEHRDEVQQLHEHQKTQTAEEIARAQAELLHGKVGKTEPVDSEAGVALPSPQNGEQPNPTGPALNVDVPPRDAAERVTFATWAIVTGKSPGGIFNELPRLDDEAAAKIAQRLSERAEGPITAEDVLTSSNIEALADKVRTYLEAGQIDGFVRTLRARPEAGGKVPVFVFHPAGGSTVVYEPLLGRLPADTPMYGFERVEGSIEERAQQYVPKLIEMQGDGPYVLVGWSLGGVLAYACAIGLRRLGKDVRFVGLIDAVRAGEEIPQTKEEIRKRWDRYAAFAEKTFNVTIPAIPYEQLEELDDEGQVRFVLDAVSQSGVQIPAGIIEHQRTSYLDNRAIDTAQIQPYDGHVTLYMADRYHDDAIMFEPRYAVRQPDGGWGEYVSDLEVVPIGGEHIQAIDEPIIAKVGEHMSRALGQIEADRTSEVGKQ
UniProt Q4DA54, 1-478: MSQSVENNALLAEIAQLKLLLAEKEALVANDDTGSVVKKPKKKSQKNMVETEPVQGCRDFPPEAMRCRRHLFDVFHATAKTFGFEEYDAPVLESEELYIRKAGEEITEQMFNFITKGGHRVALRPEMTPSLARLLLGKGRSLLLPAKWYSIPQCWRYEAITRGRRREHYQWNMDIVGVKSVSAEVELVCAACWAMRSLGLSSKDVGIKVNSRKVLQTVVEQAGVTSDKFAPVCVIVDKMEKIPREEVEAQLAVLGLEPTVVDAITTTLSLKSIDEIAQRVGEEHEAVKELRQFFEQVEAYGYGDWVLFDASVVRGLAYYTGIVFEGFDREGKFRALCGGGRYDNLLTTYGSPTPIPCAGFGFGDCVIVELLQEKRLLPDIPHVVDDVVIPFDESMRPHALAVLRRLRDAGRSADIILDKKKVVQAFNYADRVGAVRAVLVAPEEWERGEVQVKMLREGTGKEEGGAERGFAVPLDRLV

Pks13 thioesterase: 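Enzyme assay of the thioesterase domain of polyketide synthase 13; the read-out is not stated. Target: Polyketide synthase Pks13, Mycobacterium tuberculosis (UniProt I6X8D2). Tested at 30 µM. The record gives no direction; the compounds picked for IC50 retests had high values, so higher reads as stronger inhibition. Size under these conditions: about 67,000 compounds, about 300 of them at 50% or above in at least one test.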
TcHisRS: 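Enzyme assay of histidyl-tRNA synthetase; the read-out is not stated. Target: Histidine-tRNA ligase, Trypanosoma cruzi CL Brener (UniProt Q4DA54). Tested at 30 µM. Direction is inferred from retests: higher values go with stronger inhibition. Size under these conditions: about 69,000 compounds, about 31 of them at 50% or above in at least one test.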

Each number is a percent effect as filed.
The record does not define 0% and 100%; most values in the screen are far below 50% and negative numbers occur (in some assays of this library far below -100).
Compounds were drawn at random from those tested, without regard to their results.

{"smiles": "N#Cc1ccc(C(=O)N2CCC3(CC2)CC3)cc1", "Pks13 thioesterase": -29.8, "TcHisRS": 2.913}
{"smiles": "CCN(C)C1COC2(CCN(C(=O)c3cccc(Cl)c3)CC2)C1", "stereo": "configuration not stated", "Pks13 thioesterase": -17.51, "TcHisRS": -0.9709}
{"smiles": "O=C1CC(c2ccccc2)C2(CCN(Cc3ccccn3)CC2)N1", "stereo": "configuration not stated", "Pks13 thioesterase": 2.042, "TcHisRS": 3.008}
{"smiles": "CCOc1ccnc(N[C@@H](Cc2ccccc2)C(N)=O)n1", "Pks13 thioesterase": -14.22, "TcHisRS": 6.383}
{"smiles": "COCC1Cn2nnc(-c3cnn(C)c3)c2CN1Cc1ccc(C)o1", "stereo": "configuration not stated", "Pks13 thioesterase": -10.99, "TcHisRS": 2.404}
{"smiles": "Fc1ccc(Cc2cnc(C3CCCN3)cn2)cc1", "stereo": "configuration not stated", "Pks13 thioesterase": -22.12, "TcHisRS": 2.222}
{"smiles": "O=C(Nc1cccc(N2CCOCC2)c1)N[C@H](CO)c1ccccc1", "Pks13 thioesterase": -13.23, "TcHisRS": 2.609}
{"smiles": "CCCSc1ncc(-c2nccn2CCO)cn1", "Pks13 thioesterase": -1.544, "TcHisRS": 4.902}
{"smiles": "CCNc1cc2c(nn1)CCN(C(=O)Cc1ccc(C)s1)C2", "Pks13 thioesterase": -513, "TcHisRS": 8.092}
{"smiles": "COCCn1ccc(NC(=O)Nc2ccc(C)cc2)n1", "Pks13 thioesterase": 0.9323, "TcHisRS": 3.333}
{"smiles": "Cc1ccc(NC2CCN(C(=O)c3cc4c(s3)CCC4)CC2)nn1", "Pks13 thioesterase": 1.455, "TcHisRS": 11.3}
{"smiles": "CN1CCCC1CNC(=O)CCOc1ccc(Br)cc1", "stereo": "configuration not stated", "Pks13 thioesterase": -26.51, "TcHisRS": 6.509}
{"smiles": "COc1c(C2CCCN2C(=O)c2c[nH]c3ncccc23)c(C)nn1C", "stereo": "configuration not stated", "Pks13 thioesterase": -4.451, "TcHisRS": -1.141}
{"smiles": "CC(C)c1nnsc1CNC(=O)C1CCN(C(C)C)CC1", "Pks13 thioesterase": -22.72, "TcHisRS": 0.5525}
{"smiles": "Cc1noc(C)c1CN1CCN(C)c2ncccc2C1", "Pks13 thioesterase": -0.6747, "TcHisRS": 1.02}
{"smiles": "O=C(NCCc1ccccc1)N1CC[C@@H]2CNS(=O)(=O)[C@@H]2CC1", "Pks13 thioesterase": -17.35, "TcHisRS": 6.452}
{"smiles": "c1ccc(OCCCN2CCN(c3ccc4nncn4n3)CC2)cc1", "TcHisRS": 19.85}
{"smiles": "c1ccc2nc(CN3CCCC3c3noc(C4CC4)n3)ccc2c1", "stereo": "configuration not stated", "TcHisRS": 23.62}
{"smiles": "CC(C)NC(=O)C1CN(C(=O)c2ccc(F)cc2)CC12CCOCC2", "stereo": "configuration not stated", "Pks13 thioesterase": -10.75, "TcHisRS": 0.5464}
{"smiles": "N#CC1(NC(=O)c2nccc3ccccc23)CCSCC1", "Pks13 thioesterase": -2.219, "TcHisRS": 3.922}
{"smiles": "CS(=O)(=O)CCNCc1ccc(OCc2ccncc2)cc1", "Pks13 thioesterase": 5.55, "TcHisRS": 14.84}
{"smiles": "COc1ccccc1OC1CCN(C(=O)C2CCCN(C)C2)CC1", "stereo": "configuration not stated", "Pks13 thioesterase": -18.62, "TcHisRS": 11.45}
{"smiles": "CCc1ccc(CN2CCCCC2c2n[nH]cc2-c2cc(C)no2)cc1", "stereo": "configuration not stated", "Pks13 thioesterase": -15.44, "TcHisRS": 8.812}
{"smiles": "COc1ccc(CNC(C)c2cccc(Br)c2)c(OC)c1OC", "stereo": "configuration not stated", "Pks13 thioesterase": 3.027, "TcHisRS": 8.333}
{"smiles": "CCSc1ccccc1C(=O)NCCn1nc(C(F)(F)F)n(C)c1=O", "Pks13 thioesterase": -10.82, "TcHisRS": 5.102}

The last 2 entries again:

SMILES	Pks13 thioesterase	TcHisRS
COc1ccc(CNC(C)c2cccc(Br)c2)c(OC)c1OC (configuration not stated)	3.027%	8.333%
CCSc1ccccc1C(=O)NCCn1nc(C(F)(F)F)n(C)c1=O	-10.82%	5.102%

From ChEMBL document CHEMBL3988442, “University of Dundee, Small-Polar-MMV Screening Library” (2021).